This test has as its target T1, recombinant 6His-tagged TDRD1 eTD4 (human) (UniProt Q9BXT4).
T1 sequence: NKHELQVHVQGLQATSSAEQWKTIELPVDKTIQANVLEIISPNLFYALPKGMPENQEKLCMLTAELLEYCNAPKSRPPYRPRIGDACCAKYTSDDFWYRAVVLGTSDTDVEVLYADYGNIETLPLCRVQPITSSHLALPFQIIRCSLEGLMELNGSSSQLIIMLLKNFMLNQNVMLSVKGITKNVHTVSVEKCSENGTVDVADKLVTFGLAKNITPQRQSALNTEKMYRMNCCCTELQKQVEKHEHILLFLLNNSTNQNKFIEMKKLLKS
Nature of the test: affinity purification with mass spectrometry; purified 6His-tagged eTD4 as bait (BSA as control bait), VCaP cell cytoplasmic fraction as input, Ni-NTA beads, SDS-PAGE, in-gel digestion, nanoHPLC-MS/MS, iBAQ; only the target purified.

By UniProt entry, the sequences of proteins in these tests, tags left out.
UniProt P62318: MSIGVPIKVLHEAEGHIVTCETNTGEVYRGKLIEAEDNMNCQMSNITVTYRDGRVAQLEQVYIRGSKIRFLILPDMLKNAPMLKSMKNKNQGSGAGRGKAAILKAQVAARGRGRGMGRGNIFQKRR

These are yes or no findings as the source states them, for the method shown. Binding seen in cells or lysates may run through a third protein. Here binding means that the protein was enriched with, or labelled near, the bait; the list need not be complete. Tags and fused reporters may be left off the sequences shown.

Consider “endogenous SNRPD3 (from UniProt P62318 1-126)”, for which the binding entry is recorded as “binds”.

(Values after publication PMC9980208.)
